From PubChem BioAssay AID1487 (National Center for Advancing Translational Sciences (NCATS), 2009)
The other results are listed elsewhere or left out. Shown are side measurements of this screen, not its main read-out; they come without a call. Most of these compounds were active or inconclusive in the main read-out, so they are no random draw. Words in brackets tell the shape of the fitted curve; partial curves, single points and poor fits give uncertain potencies.

Experiment: qHTS Assay for Modulators of Lamin A Splicing
Conditions: HeLa LMNA splicing GFP/RFP minigene ratio, 48 h
Procedure, shortened: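 Read-out is the ratio of GFP to DsRed2 object intensity, acquired by 488 nm laser-scanning cytometry on HeLa lamin A-EGFP minigene reporter cells. Compound incubation 48 hrs at 37 °C in Opti-MEM with 2% FBS; DMSO 0.5% final.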

[1] = measured here: GFP splicing reporter channel
[2] = measured here: RFP viability control channel

Row | SMILES | AC50 [1] | AC50 [2]
1 | CC[C@H](NC(C)C)[C@H](O)c1ccc(O)c2[nH]c(=O)ccc12 | 11.2 µM [falling, single point] | 0.891 µM [falling, single point]
2 | O=C1C(=O)N(CCN2CCOCC2)C(c2ccccn2)/C1=C(/O)c1ccc(F)cc1 (stereo not given) |  | 15.8 µM [rising, single point]
3 | O=C(COc1ncnc2cc([N+](=O)[O-])ccc12)N(CCc1ccccc1)Cc1ccccc1 |  | 35.5 µM [rising, single point]
4 | O=C(Cc1ccc2c(c1)OCCO2)N1CCN(S(=O)(=O)c2cccc(Cl)c2Cl)CC1 | 11.2 µM [rising, partial curve, poor fit] | 14.1 µM [rising, partial curve]
5 | Cc1cc(C(=O)CC#N)c(C)n1-c1c(C)n(C)n(-c2ccccc2)c1=O |  | 0.00447 µM [falling, full curve, poor fit]
6 | O=c1oc(-c2cccs2)nc2sc3c(c12)CCCC3 | 35.5 µM [rising, single point] | 
7 | COC(=O)c1sc(NC(=O)c2cccc([N+](=O)[O-])c2)c(C(N)=O)c1C |  | 5.62 µM [rising, single point]
8 | CC(=O)c1c(C)[nH]c(C(=O)OCC(=O)Nc2ccc(Cl)cc2[N+](=O)[O-])c1C | 2.82 µM [rising, full curve] | 3.55 µM [rising, full curve]
9 | COC(=O)c1ccccc1NC(=O)c1c(O)c2cccc3c2n(c1=O)CCC3 |  | 5.62 µM [rising, single point]
10 | CCOC(=O)c1cn(Cc2c(C)c(C)c(C)c(C)c2C)nn1 | 0.447 µM [rising, full curve, poor fit] | 
11 | CCOC(=O)c1ccc(NS(=O)(=O)c2ccc(SC)cc2)cc1 |  | 10 µM [rising, partial curve]
12 | CCCCOC(=O)c1nc[nH]c1C(=O)OCCCC | 28.2 µM [falling, single point] | 15.8 µM [falling, single point]
13 | CCN1/C(=C/c2ccc3ccccc3[n+]2CC)C=Cc2ccccc21 |  | 5.62 µM [rising, partial curve, poor fit]
14 | CC(C)CC(=O)N[C@H](C(=O)N[C@H](C(=O)N[C@@H](CC(C)C)[C@H](O)CC(=O)N[C@@H](C)C(=O)N[C@@H](CC(C)C)[C@H](O)CC(=O)O)C(C)C)C(C)C | 2 µM [falling, single point] | 0.0891 µM [falling, partial curve]
15 | O=C(Nc1ccc(Cc2ccc(NC(=O)C3CC3)cc2)cc1)C1CC1 |  | 2 µM [falling, partial curve, poor fit]
16 | Cc1nc2cnc(N(C)C)nc2n(CCc2ccccc2)c1=O | 12.6 µM [falling, partial curve] | 
17 | CCc1cc2c(COC(=O)c3c(C)noc3C)cc(=O)oc2cc1O | 5.62 µM [rising, partial curve] | 35.5 µM [falling, single point]
18 | CCOC(=O)Cc1csc(N/N=C/c2ccccc2)n1 |  | 15.8 µM [rising, single point]
19 | CCOC(=O)C1=C(O)/C(=C\c2ccc(CNC(=O)C(=O)Nc3ccccc3)o2)N=C1C | 5.62 µM [falling, partial curve] | 4.47 µM [falling, partial curve]
20 | Cc1cccc(-n2c(=S)[nH]c3c(oc4ccccc43)c2=O)c1 |  | 0.891 µM [rising, partial curve, poor fit]
21 | CCC(C)Nc1oc(-c2ccc(COc3ccc(Cl)cc3)o2)nc1C#N (stereo not given) | 4.47 µM [rising, partial curve] | 
22 | O=[N+]([O-])c1ccc(CSc2nnc(SCc3ccc(Cl)cc3)s2)cc1 |  | 12.6 µM [rising, single point]
23 | CCNc1cc(S(=O)(=O)C(F)(F)F)ccc1N | 11.2 µM [rising, partial curve] | 22.4 µM [rising, partial curve]
24 | COc1ccc(CCNC(=O)c2cc(C(=O)c3cc(C)ccc3O)cn(CCc3ccc(OC)cc3)c2=O)cc1 |  | 3.55 µM [rising, full curve, poor fit]
25 | Cc1cccc(OCC(O)Cn2c(=N)n(CCN3CCCCC3)c3ccccc32)c1 (stereo not given) | 25.1 µM [rising, single point] | 31.6 µM [rising, single point]
26 | CCc1ccc(-c2cc(C(=O)NCc3ccccn3)c3ccccc3n2)cc1 |  | 20 µM [rising, single point]
27 | N#Cc1nc(-c2cccs2)oc1N1CCN(c2ccccc2)CC1 |  | 10 µM [rising, partial curve, poor fit]

Sorted by SMILES length (ascending): part of the list above
Row | SMILES | AC50 [1] | AC50 [2]
10 | CCOC(=O)c1cn(Cc2c(C)c(C)c(C)c(C)c2C)nn1 | 0.447 µM [rising, full curve, poor fit] | 
13 | CCN1/C(=C/c2ccc3ccccc3[n+]2CC)C=Cc2ccccc21 |  | 5.62 µM [rising, partial curve, poor fit]
5 | Cc1cc(C(=O)CC#N)c(C)n1-c1c(C)n(C)n(-c2ccccc2)c1=O |  | 0.00447 µM [falling, full curve, poor fit]

Next compounds follow:

Row | SMILES | AC50 [1] | AC50 [2]
28 | Cc1c(C(=O)Nc2ccncc2)oc2c1C(=O)CC(C)(C)C2 |  | 14.1 µM [rising, single point]
29 | Cc1oc(-c2cccs2)nc1CS(=O)CC(=O)NC1CCCCCC1 (stereo not given) |  | 6.31 µM [rising, partial curve]
30 | COC(=O)c1cc(NC(=O)CN(c2ccc3c(c2)OCO3)S(C)(=O)=O)ccc1Cl | 14.1 µM [rising, single point] | 17.8 µM [rising, single point]
31 | O=[N+]([O-])c1cccnc1N1CCC(c2cc(-c3cccc(C(F)(F)F)c3)n[nH]2)CC1 |  | 25.1 µM [rising, single point]
32 | COc1ccccc1CNC(=O)C1CCN(S(=O)(=O)c2ccc3c(ccn3C)c2)CC1 | 0.126 µM [rising, full curve, poor fit] | 7.08 µM [rising, full curve, poor fit]
33 | CCOc1ccccc1NC(=O)C1CCCCN1S(=O)(=O)c1ccc(F)cc1 (stereo not given) |  | 20 µM [rising, single point]
34 | Cc1ccc(S(=O)(=O)NC(=O)NN2C[C@H]3CCC[C@@H]3C2)cc1 | 14.1 µM [falling, single point] | 0.141 µM [falling, partial curve, poor fit]
35 | CC(=O)c1ccc(Cc2ccccc2)cc1 | 0.02 µM [rising, full curve, poor fit] | 0.02 µM [rising, full curve, poor fit]
36 | O=S(=O)(NCC1CCCO1)c1ccc2ccccc2c1 (stereo not given) | 0.794 µM [rising, full curve] | 0.794 µM [rising, full curve]
37 | Cc1ccc(Nc2nc(CSc3nnc(-c4ccc(F)cc4)n3C)cs2)cc1 | 5.62 µM [rising, full curve, poor fit] | 14.1 µM [rising, partial curve]
38 | O=S(=O)(CCSc1ccccn1)c1nc2ccccc2s1 | 3.55 µM [falling, single point] | 11.2 µM [falling, single point]
39 | COc1cccc(-c2nn(C)c3sc(C(=O)Nc4ccc5c(c4)OCCO5)cc23)c1 |  | 15.8 µM [rising, partial curve, poor fit]
40 | Cc1cc(Cl)ccc1OCC(=O)n1cc(C(=O)c2cc(Cl)ccc2O)cn1 | 0.0158 µM [rising, full curve, poor fit] | 
41 | CCc1ccc2c(COC(=O)c3n[nH]c4ccccc34)cc(=O)oc2c1 |  | 35.5 µM [rising, single point]
42 | CCOc1ccc(/C=N/NC(=O)c2[nH]ncc2Br)c(O)c1 | 31.6 µM [falling, single point] | 35.5 µM [falling, single point]
43 | COc1ccccc1/C=N/NC(=O)c1nnn(-c2nonc2N)c1CSC1=NCCS1 |  | 11.2 µM [rising, single point]
44 | O=C(N/N=C/c1sc2ccccc2c1O)c1cccc2ccccc12 | 14.1 µM [rising, partial curve] | 20 µM [rising, partial curve]
45 | COc1cc(NC(=O)N2CCC3(CC2)Nc2cc(F)ccc2-n2cccc23)cc(OC)c1OC | 0.708 µM [rising, full curve, poor fit] | 5.62 µM [rising, partial curve, poor fit]
46 | CC(C)(C)c1ccc(CN(Cc2ccco2)c2cnc(S(C)(=O)=O)nc2C(=O)Nc2ccc(F)cc2)cc1 | 35.5 µM [falling, single point] | 35.5 µM [falling, single point]
47 | Cc1cc(C)c(NC(=O)Cn2c(=O)nc(-c3ccccc3)c3cc(Cl)ccc32)c(C)c1 | 4.47 µM [falling, full curve, poor fit] | 
48 | Cc1cccc2sc(N(CCCN(C)C)C(=O)CN3C(=O)c4ccccc4C3=O)nc12 | 0.00891 µM [rising, full curve, poor fit] | 
49 | O=[N+]([O-])c1ccc(COc2ccc(-c3[nH]ncc3-c3ccc(Cl)cc3)c(O)c2)cc1 |  | 6.31 µM [rising, single point]
50 | CCOC(=O)n1c(=O)n(Cc2ccc(Cl)c(Cl)c2)c2ccccc21 | 20 µM [rising, single point] | 25.1 µM [rising, single point]
51 | Cc1nc(NC2=NCN(Cc3ccco3)CN2)nc2ccccc12 |  | 11.2 µM [rising, partial curve, poor fit]
52 | Cc1ccc(C)c(NC(=S)c2ccccn2)c1 | 4.47 µM [falling, full curve] | 14.1 µM [falling, partial curve]
53 | COc1ccc(/C=N/NC(=O)c2cccnc2)cc1CSc1nc2ccccc2s1 |  | 2.82 µM [rising, single point]
